Tested on: UT-SCC-9, UT-SCC-27, UT-SCC-54C, and UT-SCC-76
Assay: PamChip kinase inhibition profiles of 4 patient derived head and neck squamous cell carcinoma cell lines
Type: biochemical
Conditions: selected set of peptides, FIG. 3b

Compound: CN[C@@H]1C[C@H]2O[C@@](C)([C@@H]1OC)n1c3ccccc3c3c4c(c5c6ccccc6n2c5c31)C(=O)NC4 [Staurosporin]
- inhibition profiles (ratios of phosphorylation in the absence and presence of the inhibitor), differences between cell lines: pronounced differences
